In this experiment the target is T1, human 5-HT2A receptor (5-HT2AR) (Homo sapiens, UniProt P28223).
T1 construct: gene HTR2A; SNAP-tagged (SNAP-Lumi4-Tb labelled) receptor transiently expressed in CHO-K1 cells; membranes; plasmid from CisBio
The experiment in a line: TR-FRET equilibrium competition binding. The source says: TR-FRET equilibrium competition binding on human 5-HT2A receptor (5-HT2AR)
Background: Time-resolved FRET reads energy transfer from a long-lived donor to a nearby acceptor.

Chains of the proteins cited; added tags and fusions are not shown.
UniProt P28223, whole entry: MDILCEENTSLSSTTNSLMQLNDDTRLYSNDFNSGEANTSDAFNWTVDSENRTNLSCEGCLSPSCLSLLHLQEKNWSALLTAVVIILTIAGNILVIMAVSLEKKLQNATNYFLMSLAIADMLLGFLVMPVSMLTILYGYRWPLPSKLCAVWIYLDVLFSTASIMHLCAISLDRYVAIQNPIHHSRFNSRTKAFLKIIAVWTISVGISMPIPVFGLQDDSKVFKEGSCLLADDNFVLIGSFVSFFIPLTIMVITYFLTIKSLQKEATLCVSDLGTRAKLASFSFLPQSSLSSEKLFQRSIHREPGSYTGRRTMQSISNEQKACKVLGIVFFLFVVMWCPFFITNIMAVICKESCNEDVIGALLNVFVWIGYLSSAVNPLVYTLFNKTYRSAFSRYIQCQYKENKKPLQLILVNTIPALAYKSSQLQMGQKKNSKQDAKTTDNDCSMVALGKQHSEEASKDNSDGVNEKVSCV

The Ki is a dissociation constant, usually derived from enzyme kinetics or from competition with a known ligand. Read a high Ki as lower affinity. `COc1cc(C(C)=O)ccc1OCCCN1CCC(c2noc3cc(F)ccc23)CC1` [Iloperidone] had an inhibition constant Ki of 0.479 nM.

Values taken from publication doi:10.1101/2021.11.14.468520v1, “Exploring the kinetic selectivity of antipsychotics for dopamine D2 and 5-HT2A receptors: implications for the prevalence of EPS and receptor occupancy” (biorxiv, 2021).
